Assay results: patent publication US20210340217A1, “NOVEL PEPTIDES AND COMBINATION OF PEPTIDES FOR USE IN IMMUNOTHERAPY AGAINST OVARIAN CANCER AND OTHER CANCERS” (Immatics Biotechnologies GmbH, priority 2017, published 2021)
For some assays here: Expression values are those of the mRNA of the gene that encodes the peptide; a gene is named only where it was looked up.

System: ovarian cancer tissue samples
Assay: Identification of tumor associated peptides presented on the cell surface (HLA immunoprecipitation, LC-MS); presentation across tumor types
Parameters: species or system human
Settings: tumor types on which the peptide was found presented (HLA immunoprecipitation, LC-MS); abbreviations in table footnote

| Substance | Peptide Presentation on tumor types |
| --- | --- |
| 437 (TEAVVTNEL; listed as Homo sapiens) [compound 437] | CRC, GC, NSCLC, SCLC, UEC |
| 81 (VYNHTTRPL; listed as Homo sapiens) [compound 81] | OSCAR |
| 392 (KPIESTLVA; listed as Homo sapiens) [compound 392] | GBM, MEL, NSCLC, UEC |
| 176 (AEIEPKADGSW; listed as Homo sapiens) [compound 176] | CCC, NSCLC, PRCA |
| 280 (SVSGVKTTF; listed as Homo sapiens) [compound 280] | HCC, UEC |
| 695 (RGSLLSEADVRALG; listed as Homo sapiens) [compound 695] | NSCLC |
| 72 (YLTDLQVSL; listed as Homo sapiens) [compound 72] | AML, BRCA, CCC, CLL, CRC, GBC, GBM, GC, GEJC, HCC, HNSCC, MEL, NHL, NSCLC, OSCAR, PACA, PRCA, RCC, SCLC, UBC, UEC |
| 227 (YTFRYPLSL; listed as Homo sapiens) [compound 227] | CCC, CRC, GBC, GC, HCC, HNSCC, NSCLC, OSCAR, PACA, SCLC, UBC, UEC |
| 211 (EEKVFPSPLW; listed as Homo sapiens) [compound 211] | NHL |
| 317 (FPFQPGSV; listed as Homo sapiens) [compound 317] | AML, BRCA, CLL, CRC, GBC, GBM, GC, HCC, HNSCC, MEL, NHL, NSCLC, OSCAR, PACA, PRCA, RCC, SCLC, UBC, UEC |
| 109 (KTFTIKRFLAK; listed as Homo sapiens) [compound 109] | BRCA, CCC, MEL, NHL, NSCLC, OSCAR, SCLC, UEC |
| 271 (RMFADDLHNLNK; listed as Homo sapiens) [compound 271] | NSCLC |
| 188 (AEFAKKQPWW; listed as Homo sapiens) [compound 188] | CCC, CLL, CRC, MEL, NHL, NSCLC |
| 628 (DALRGLLPVLGQPIIRSIPQ; listed as Homo sapiens) [compound 628] | NSCLC |
| 462 (QRMTTQLLL; listed as Homo sapiens) [compound 462] | NSCLC, RCC, UEC |
| 1 (MIPTFTALL; listed as Homo sapiens) [compound 1] | CRC, GBC, NHL, NSCLC, UEC |
| 174 (AEATARLNVF; listed as Homo sapiens) [compound 174] | NSCLC |
| 430 (DEKILYPEF; listed as Homo sapiens) [compound 430] | UEC |
| 48 (DVKKKIKEV; listed as Homo sapiens) [compound 48] | NSCLC, RCC, SCLC |
| 224 (SLPRFQVTL; listed as Homo sapiens) [compound 224] | BRCA, HCC, NHL, NSCLC, OSCAR, UBC, UEC |

| Substance | Peptide Presentation on tumor types |
| --- | --- |
| 101 (RVFTSSIKTK; listed as Homo sapiens) [compound 101] | NSCLC, PACA, UEC |
| 36 (APAAWLRSA; listed as Homo sapiens) [compound 36] | BRCA, CCC, CRC, GBC, GC, HCC, HNSCC, NSCLC, OSCAR, PACA, SCLC, UBC, UEC |
| 461 (AQRMTTQLL; listed as Homo sapiens) [compound 461] | CRC, MEL, NSCLC, RCC |
| 490 (AEVQKLLGP; listed as Homo sapiens) [compound 490] | HNSCC, NSCLC, OSCAR, UEC |
| 13 (VYTFLSSTL; listed as Homo sapiens) [compound 13] | NSCLC |
| 60 (GLLSLTSTLYL; listed as Homo sapiens) [compound 60] | BRCA |
| 240 (FSTDTSIVL; listed as Homo sapiens) [compound 240] | PACA |
| 378 (RPRSPAGQVAA; listed as Homo sapiens) [compound 378] | NHL, PACA, SCLC |
| 363 (TAKTPDATF; listed as Homo sapiens) [compound 363] | CCC |
| 527 (QSTPYVNSV; listed as Homo sapiens) [compound 527] | UEC |
| 609 (LTVAEVQKLLGPHVEGLKA; listed as Homo sapiens) [compound 609] | NSCLC |
| 618 (VAEVQKLLGPHVEG; listed as Homo sapiens) [compound 618] | NSCLC |
| 484 (AWLRSAAA; listed as Homo sapiens) [compound 484] | CCC |
| 8 (YLVTKVVAV; listed as Homo sapiens) [compound 8] | AML, BRCA, CCC, CLL, CRC, GBC, GBM, GC, GEJC, HCC, HNSCC, MEL, NHL, NSCLC, OSCAR, PACA, PRCA, RCC, SCLC, UBC, UEC |
| 268 (GLLGLSLRY; listed as Homo sapiens) [compound 268] | PRCA |
| 591 (VRGEVAPDAKSFVLNL; listed as Homo sapiens) [compound 591] | NSCLC, RCC |
| 43 (ALKARTVTF; listed as Homo sapiens) [compound 43] | BRCA, CCC, GBM, HCC, HNSCC, MEL, NHL, NSCLC, OSCAR, PRCA, SCLC, UBC, UEC |
| 429 (REKFIASVI; listed as Homo sapiens) [compound 429] | UEC |
| 438 (SEVDSPNVL; listed as Homo sapiens) [compound 438] | CCC, CLL, CRC, GC, HNSCC, MEL, NHL, NSCLC, SCLC, UBC |
| 113 (QLDSNRLTY; listed as Homo sapiens) [compound 113] | HCC |

| Substance | Peptide Presentation on tumor types |
| --- | --- |
| 446 (GRIVAFFSF; listed as Homo sapiens) [compound 446] | AML, BRCA, CRC, HCC, HNSCC, MEL, NHL, NSCLC, OSCAR, PACA, PRCA, SCLC, UBC, UEC |
| 180 (REAGDEFELRY; listed as Homo sapiens) [compound 180] | CRC, HCC, MEL, NSCLC, OSCAR, PACA, RCC, UEC |
| 611 (LTVAEVQKLLGPHVEGL; listed as Homo sapiens) [compound 611] | NSCLC |
| 150 (MAAVKQAL; listed as Homo sapiens) [compound 150] | CCC, NSCLC, PACA |
| 414 (EDAALFKAW; listed as Homo sapiens) [compound 414] | CLL, CRC, MEL, NHL |
| 625 (DALRGLLPVLGQPIIRSIPQG; listed as Homo sapiens) [compound 625] | NSCLC |
| 598 (AESLFREALSNKVDEL; listed as Homo sapiens) [compound 598] | NSCLC |
| 518 (TSDFPTITV; listed as Homo sapiens) [compound 518] | PACA |
| 694 (GSLLSEADVRALGG; listed as Homo sapiens) [compound 694] | NSCLC |
| 633 (LRGLLPVLGQPIIRSIPQ; listed as Homo sapiens) [compound 633] | NSCLC |
| 110 (SAAPPSYFR; listed as Homo sapiens) [compound 110] | RCC, UEC |
| 27 (VLYGPAGLGK; listed as Homo sapiens) [compound 27] | HCC, HNSCC, NSCLC, OSCAR, PACA, SCLC, UBC, UEC |
| 302 (RVEEVRALL; listed as Homo sapiens) [compound 302] | BRCA, CRC, GBM, UBC |
| 590 (RVRGEVAPDAKSFVLNLG; listed as Homo sapiens) [compound 590] | NSCLC |
| 192 (YEFKFPNRL; listed as Homo sapiens) [compound 192] | BRCA, HCC, NSCLC, OSCAR, UEC |
| 444 (KLSQKGYSW; listed as Homo sapiens) [compound 444] | BRCA, CCC, CRC, GBM, HCC, HNSCC, MEL, NHL, NSCLC, OSCAR, PACA, PRCA, SCLC, UBC |
| 479 (TEGSHFVEA; listed as Homo sapiens) [compound 479] | BRCA, SCLC, UEC |
| 129 (APRPASSL; listed as Homo sapiens) [compound 129] | BRCA, CRC, NSCLC, OSCAR, SCLC, UEC |

System: source genes in OC tumors compared to a panel of normal tissues
Assay: Expression profiling of genes encoding the peptides (RNAseq), expression scores
Parameters: species or system human; key: very highly over-expressed in OC tumors compared to a panel of normal tissues (+++); highly over-expressed in OC tumors compared to a panel of normal tissues (++); over-expressed in OC tumors compared to a panel of normal tissues (+)
Settings: expression score of source gene

| Substance | Gene Expression |
| --- | --- |
| 372: peptide found in MYO3B (gene looked up) (IPRNPPPTLL; listed as Homo sapiens) [compound 372] | +++ |
| 122: peptide found in EYA2 (gene looked up) (YPGFPQSQY; listed as Homo sapiens) [compound 122] | +++ |
| 313: peptide found in HTR3A (gene looked up) (KVKSDRSVF; listed as Homo sapiens) [compound 313] | +++ |
| 238: peptide found in MUC16 (gene looked up) (PLLVLFTI; listed as Homo sapiens) [compound 238] | +++ |
| 177: peptide found in BCAT1 (gene looked up) (TEVGTMNLF; listed as Homo sapiens) [compound 177] | ++ |
| 131: peptide found in MSLN (gene looked up) (APTEDLKAL; listed as Homo sapiens) [compound 131] | ++ |
| 159: peptide found in MSLN (gene looked up) (VLKHKLDEL; listed as Homo sapiens) [compound 159] | ++ |
| 88: peptide found in CCR5 (gene looked up) (VVHAVFALK; listed as Homo sapiens) [compound 88] | + |
| 303: peptide found in CLDN6 (gene looked up) (LPMWKVTAF; listed as Homo sapiens) [compound 303] | +++ |
| 160: peptide found in MSLN (gene looked up) (YPKARLAF; listed as Homo sapiens) [compound 160] | ++ |
